# Source: doi:10.1101/2020.10.07.329979
# No constants are given. Whether binding was seen depends on the method and setting. Binding seen in cells or lysates may run through a third protein. Here binding means that the protein was enriched with, or labelled near, the bait; the list need not be complete.
# T1: Fibrillin 2 (FBN2), endogenous (Arabidopsis thaliana (endogenous in Arabidopsis leaves)) (UniProt O82291)
# T1 sequence: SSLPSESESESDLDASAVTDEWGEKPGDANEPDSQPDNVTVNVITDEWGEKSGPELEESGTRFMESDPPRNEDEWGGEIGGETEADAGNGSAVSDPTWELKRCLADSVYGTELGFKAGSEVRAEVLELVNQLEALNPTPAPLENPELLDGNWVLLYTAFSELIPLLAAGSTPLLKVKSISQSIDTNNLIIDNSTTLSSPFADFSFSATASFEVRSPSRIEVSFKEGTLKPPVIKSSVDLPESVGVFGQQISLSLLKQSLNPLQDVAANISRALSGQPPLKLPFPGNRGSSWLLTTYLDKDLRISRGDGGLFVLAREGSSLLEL
# Target: T1, Fibrillin 2 (FBN2), endogenous (Arabidopsis thaliana (endogenous in Arabidopsis leaves))
# Test: affinity purification with mass spectrometry
row,Molecule,binding
1,"Fibrillin 1a (FBN1a), endogenous (protein, UniProt O81439 56-318) ATDIDDEWGQDGVERVFASSSTVSVADKAIESVEETERLKRSLADSLYGTDRGLSVSSDTRAEISELITQLESKNPTPAPNEALFLLNGKWILAYTSFVGLFPLLSRRIEPLVKVDEISQTIDSDSFTVQNSVRFAGPFSTTSFSTNAKFEIRSPKRVQIKFEQGVIGTPQLTDSIEIPESVEVLGQKIDLNPIKGLLTSVQDTASSVARTISNQPPLKFSLPSDNTQSWLLTTYLDKDLRISRGDGGSVYVLIKEGSSLLNP",binds
2,"fructose bisphosphate aldolase (FBA) isoform 2, endogenous (enzyme, UniProt Q944G9 47-398) AASSYADELVKTAKTIASPGRGILAMDESNATCGKRLDSIGLENTEANRQAFRTLLVSAPGLGQYVSGAILFEETLYQSTTEGKKMVDVLVEQNIVPGIKVDKGLVPLVGSNNESWCQGLDGLSSRTAAYYQQGARFAKWRTVVSIPNGPSALAVKEAAWGLARYAAISQDSGLVPIVEPEILLDGEHDIDRTYDVAEKVWAEVFFYLAQNNVMFEGILLKPSMVTPGAESKDRATPEQVAAYTLKLLRNRVPPAVPGIMFLSGGQSEVEATLNLNAMNQAPNPWHVSFSYARALQNTCLKTWGGRPENVNAAQTTLLARAKANSLAQLGKYTGEGESEEAKEGMFVKGYTY",binds
3,"allene oxide synthase (AOS), endogenous (enzyme, UniProt Q96242 34-518) SGSETPDLTVATRTGSKDLPIRNIPGNYGLPIVGPIKDRWDYFYDQGAEEFFKSRIRKYNSTVYRVNMPPGAFIAENPQVVALLDGKSFPVLFDVDKVEKKDLFTGTYMPSTELTGGYRILSYLDPSEPKHEKLKNLLFFLLKSSRNRIFPEFQATYSELFDSLEKELSLKGKADFGGSSDGTAFNFLARAFYGTNPADTKLKADAPGLITKWVLFNLHPLLSIGLPRVIEEPLIHTFSLPPALVKSDYQRLYEFFLESAGEILVEADKLGISREEATHNLLFATCFNTWGGMKILFPNMVKRIGRAGHQVHNRLAEEIRSVIKSNGGELTMGAIEKMELTKSVVYECLRFEPPVTAQYGRAKKDLVIESHDAAFKVKAGEMLYGYQPLATRDPKIFDRADEFVPERFVGEEGEKLLRHVLWSNGPETETPTVGNKQCAGKDFVVLVARLFVIEIFRRYDSFDIEVGTSPLGSSVNFSSLRKASF",binds
4,"Lipoxygenase 2 (LOX2), endogenous (enzyme, UniProt P38418 57-896) ANIEQEGNTVKEPIQNIKVKGYITAQEEFLEGITWSRGLDDIADIRGRSLLVELISAKTDQRITVEDYAQRVWAEAPDEKYECEFEMPEDFGPVGAIKIQNQYHRQLFLKGVELKLPGGSITFTCESWVAPKSVDPTKRIFFSDKSYLPSQTPEPLKKYRKEELETLQGKNREEVGEFTKFERIYDYDVYNDVGDPDNDPELARPVIGGLTHPYPRRCKTGRKPCETDPSSEQRYGGEFYVPRDEEFSTAKGTSFTGKAVLAALPSIFPQIESVLLSPQEPFPHFKAIQNLFEEGIQLPKDAGLLPLLPRIIKALGEAQDDILQFDAPVLINRDRFSWLRDDEFARQTLAGLNPYSIQLVEEWPLISKLDPAVYGDPTSLITWEIVEREVKGNMTVDEALKNKRLFVLDYHDLLLPYVNKVRELNNTTLYASRTLFFLSDDSTLRPVAIELTCPPNINKPQWKQVFTPGYDATSCWLWNLAKTHAISHDAGYHQLISHWLRTHACTEPYIIAANRQLSAMHPIYRLLHPHFRYTMEINARARQSLVNGGGIIETCFWPGKYALELSSAVYGKLWRFDQEGLPADLIKRGLAEEDKTAEHGVRLTIPDYPFANDGLILWDAIKEWVTDYVKHYYPDEELITSDEELQGWWSEVRNIGHGDKKDEPWWPVLKTQDDLIGVVTTIAWVTSGHHAAVNFGQYGYGGYFPNRPTTTRIRMPTEDPTDEALKEFYESPEKVLLKTYPSQKQATLVMVTLDLLSTHSPDEEYIGEQQEASWANEPVINAAFERFKGKLQYLEGVIDERNVNITLKNRAGAGVVKYELLKPTSEHGVTGMGVPYSISI",binds
5,"isoform 2 of the ferredoxin-NADP[H] oxidoreductase (FNR2), endogenous (enzyme, UniProt Q8W493 58-369) ITTETDTPTPAKKVEKVSKKNEEGVIVNRYRPKEPYTGKCLLNTKITADDAPGETWHMVFSHQGEIPYREGQSVGVIADGIDKNGKPHKVRLYSIASSALGDLGNSETVSLCVKRLVYTNDQGETVKGVCSNFLCDLAPGSDVKLTGPVGKEMLMPKDPNATVIMLATGTGIAPFRSFLWKMFFEKHDDYKFNGLAWLFLGVPTTSSLLYQEEFDKMKAKAPENFRVDYAISREQANDKGEKMYIQTRMAQYAAELWELLKKDNTFVYMCGLKGMEKGIDDIMVSLAANDGIDWFDYKKQLKKAEQWNVEVY",binds
6,"Tic62, endogenous (protein, UniProt Q8H0U5 64-641) ASSVVTEASPTNLNSKEEDLVFVAGATGKVGSRTVRELLKLGFRVRAGVRSAQRAGSLVQSVKEMKLQNTDEGTQPVEKLEIVECDLEKKDSIQPALGNASVIICCIGASEKEISDITGPYRIDYLATKNLVDAATSAKVNNFILVTSLGTNKFGFPAAILNLFWGVLCWKRKAEEALIESGLNYAIVRPGGMERPTDAYKETHNLTLALDDTLFGGQVSNLQVAELLACMAKNPQLSFSKIVEVVAETTAPLTPIEKLLEKIPSKRPYVPPPKASVATKEVKPVPTKPVTQEPTAPKEDEAPPKEKNVKPRPLSPYASYEDLKPPTSPIPNSTTSVSPAKSKEVDATQVPVEANVVPVPDSTSNVPVVEVKQVEEKKERPLSPYARYENLKPPSSPSPTASSTRKSDSLSPGPTDSDTDKSSTVAKTVTETAVATSVTETSVATSVPETAVATSVTETAAPATSKMRPLSPYAIYADLKPPTSPTPASTGPKEAASVEDNSELPGGNNDVLKTVDGNLNTIPPSTPEAVPVVSSAIDTSLASGDNTAQPKPRPLSPYTMYADMKPPTSPLPSPVTNH",binds
7,"NAD(P)H dehydrogenase C1, endogenous (enzyme, UniProt Q8GXR9 53-519) AVTNNSGTTEISDNETAPRTYSWPDNKRPRVCILGGGFGGLYTALRLESLVWPEDKKPQVVLVDQSERFVFKPMLYELLSGEVDVWEIAPRFSDLLTNTGIQFLRDRVKTLLPCDHLGVNGSEISVTGGTVLLESGFKIEYDWLVLALGAESKLDVVPGAMELAFPFYTLEDAIRVNEKLSKLERKNFKDGSAIKVAVVGCGYAGVELAATISERLQDRGIVQSINVSKNILTSAPDGNREAAMKVLTSRKVQLLLGYLVQSIKRASNLEEDEGYFLELQPAERGLESQIIEADIVLWTVGAKPLLTKLEPSGPNVLPLNARGQAETDETLRVKGHPRIFALGDSSSLRDSNGKILPTTAQVAFQEADFTGWNIWAAINNRPLLPFRFQNLGEMMTLGRYDAAISPSFIEGLTLEGPIGHAARKLAYLIRLPTDEHRFKVGISWFAKSAVDSIALLQSNLTKVLSGS",binds
8,"fructose bisphosphate aldolase (FBA) isoform 1, endogenous (enzyme, UniProt Q9SJU4 49-399) ASAYADELVKTAKTIASPGHGIMAMDESNATCGKRLASIGLENTEANRQAYRTLLVSAPGLGQYISGAILFEETLYQSTTDGKKMVDVLVEQNIVPGIKVDKGLVPLVGSYDESWCQGLDGLASRTAAYYQQGARFAKWRTVVSIPNGPSALAVKEAAWGLARYAAISQDSGLVPIVEPEIMLDGEHGIDRTYDVAEKVWAEVFFYLAQNNVMFEGILLKPSMVTPGAEATDRATPEQVASYTLKLLRNRIPPAVPGIMFLSGGQSELEATLNLNAMNQAPNPWHVSFSYARALQNTCLKTWGGKEENVKAAQDILLARAKANSLAQLGKYTGEGESEEAKEGMFVKGYTY",binds

# Target: T1, Fibrillin 2 (FBN2), endogenous (Arabidopsis thaliana (endogenous in Arabidopsis leaves))
# Test: affinity purification with mass spectrometry
# Remark: another data set of the same source
row,Molecule,binding
1,"Acclimation of Photosynthesis to Environment 1 (APE1), endogenous",binds
